Primary screen of a compound library

Amino acid sequences for entries named in this document (tags omitted).
UniProt I6X8D2, whole entry: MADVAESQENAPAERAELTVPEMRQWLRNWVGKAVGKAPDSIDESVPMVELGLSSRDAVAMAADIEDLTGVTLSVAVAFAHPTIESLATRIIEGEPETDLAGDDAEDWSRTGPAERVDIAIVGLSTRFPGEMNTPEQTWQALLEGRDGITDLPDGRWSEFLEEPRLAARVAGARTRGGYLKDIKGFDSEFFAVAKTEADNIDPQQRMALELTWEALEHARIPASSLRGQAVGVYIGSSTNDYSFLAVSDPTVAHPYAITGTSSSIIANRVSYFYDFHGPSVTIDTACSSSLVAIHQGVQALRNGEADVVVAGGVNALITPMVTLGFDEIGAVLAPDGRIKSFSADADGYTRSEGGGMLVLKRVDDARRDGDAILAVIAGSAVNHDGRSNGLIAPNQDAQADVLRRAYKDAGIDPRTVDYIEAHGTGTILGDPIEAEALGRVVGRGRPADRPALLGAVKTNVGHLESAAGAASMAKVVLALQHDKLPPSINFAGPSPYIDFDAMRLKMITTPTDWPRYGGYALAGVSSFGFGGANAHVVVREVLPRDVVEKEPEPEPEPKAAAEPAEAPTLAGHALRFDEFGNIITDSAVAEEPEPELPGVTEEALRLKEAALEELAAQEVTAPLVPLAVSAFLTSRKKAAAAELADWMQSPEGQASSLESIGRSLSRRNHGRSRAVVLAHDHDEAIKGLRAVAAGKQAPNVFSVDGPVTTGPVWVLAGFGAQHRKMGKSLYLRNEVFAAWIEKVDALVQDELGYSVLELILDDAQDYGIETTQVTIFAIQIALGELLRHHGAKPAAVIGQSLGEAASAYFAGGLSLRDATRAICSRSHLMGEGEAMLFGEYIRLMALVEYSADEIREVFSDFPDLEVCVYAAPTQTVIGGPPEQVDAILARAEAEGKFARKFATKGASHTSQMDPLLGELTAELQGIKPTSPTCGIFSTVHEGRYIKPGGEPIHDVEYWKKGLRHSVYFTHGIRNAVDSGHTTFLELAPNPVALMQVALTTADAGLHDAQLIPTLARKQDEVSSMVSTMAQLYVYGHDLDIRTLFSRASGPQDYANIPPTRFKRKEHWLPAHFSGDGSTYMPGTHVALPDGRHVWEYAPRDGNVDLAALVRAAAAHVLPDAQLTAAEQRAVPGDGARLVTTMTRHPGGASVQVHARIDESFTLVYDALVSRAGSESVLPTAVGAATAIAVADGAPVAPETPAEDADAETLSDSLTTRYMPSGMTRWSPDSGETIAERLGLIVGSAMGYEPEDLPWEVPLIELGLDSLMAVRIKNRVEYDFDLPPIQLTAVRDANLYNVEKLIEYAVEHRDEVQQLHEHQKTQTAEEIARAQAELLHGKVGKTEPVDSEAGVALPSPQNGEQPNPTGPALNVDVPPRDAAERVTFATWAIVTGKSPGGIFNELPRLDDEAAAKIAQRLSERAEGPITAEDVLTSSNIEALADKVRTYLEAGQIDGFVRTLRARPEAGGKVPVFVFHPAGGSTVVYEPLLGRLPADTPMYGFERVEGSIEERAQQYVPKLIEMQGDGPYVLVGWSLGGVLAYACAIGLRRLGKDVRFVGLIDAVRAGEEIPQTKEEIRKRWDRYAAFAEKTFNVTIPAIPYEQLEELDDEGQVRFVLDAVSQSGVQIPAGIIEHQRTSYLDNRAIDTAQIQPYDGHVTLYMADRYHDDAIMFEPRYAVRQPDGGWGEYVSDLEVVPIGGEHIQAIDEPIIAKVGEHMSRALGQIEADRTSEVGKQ

Source: ChEMBL document CHEMBL3988442, “University of Dundee, Small-Polar-MMV Screening Library” (2021).

Values are the deposited “Percent Effect”, in %. How 0% and 100% were set is not recorded. Most values in the screen are low, and negative values occur. This is an unselected part of the compounds tested.

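Polyketide synthase Pks13, Mycobacterium tuberculosis (UniProt I6X8D2). Enzyme assay of the thioesterase domain of polyketide synthase 13; the read-out is not stated. Tested at 30 µM. Higher reads as stronger inhibition (inferred from which compounds were picked for retests). Of about 67,000 compounds tested this way, about 300 (0.46%) reached 50% or more in at least one test.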

With O=C(NCCN1CCNCC1)c1c(O)c2ccccc2[nH]c1=O the screen gave -14.7%. For c1ccc(Cc2noc(-c3ccc(NCC4COCCO4)nc3)n2)cc1 (centres undefined) the result was 3.561%. CSCCN1CCC(NC(=O)OC(C)(C)C)CC1 read -25.18%. For CCSCC(C)NCc1cn2ccccc2n1 (centres undefined) the result was -6.673%. With Cc1cnc(CN2CCOC(Cn3nc(C)nc3C)C2)cn1 (centres undefined) the screen gave -42.79%. With CN1CC(C(=O)NCc2ccc(OCc3cccnc3)cc2)CC1=O (centres undefined) the screen gave -21.51%.

Result for Cc1nn(C)cc1S(=O)(=O)N[C@@H]1CC[C@@H](n2ccnc2C)[C@@H]1O was -16.59%. CC(C)(C)OC(=O)NCCNC(=O)c1ccc(-c2ccco2)[nH]c1=O read 7.872%. Result for CN(C)S(=O)(=O)N1C[C@H]2C[C@H](C(=O)NCc3ccccc3)[C@@H](C1)O2 was 3.074%. For Cc1c(CN2CCCCC2)c(O)n(CCCO)c(=O)c1C#N the result was 18.23%. Cn1ncc(N2CCC(CNC(=O)[C@@H](N)C3CCCCC3)CC2)cc1=O gave -1.875%. Result for O=C([C@H]1COC[C@H]2CN(CC3CCC3)C[C@H]21)N1CCOCC1 was -17.83%.

Cc1cc(N2CCCC2c2nc(C)cc(CCC(=O)O)n2)ncn1 (centres undefined) read -1.719%. With CS(=O)(=O)N1CC[C@H](c2nc3ccc(C(F)(F)F)cc3[nH]2)C1 the screen gave -1.219%. With CCCc1n[nH]c(C2CN(CCCS(=O)(=O)N(C)C)CCO2)n1 (centres undefined) the screen gave -23.56%. COc1ncccc1C(=O)NCC1Cc2ccccc2O1 (centres undefined) gave -4.446%. CCCc1cncnc1N1CCC2(CCC(=O)N(CCCO)C2)CC1 read -2.532%. Cc1nc(C)n(CC2CCCN(CCOc3cccc(F)c3)C2)n1 (centres undefined) gave -4.289%.

COCCN(Cc1cnn(C)c1)c1nc2c(s1)c(C)nn2C gave -3.711%. For Cc1ncc(CNCC(=O)NC2CCCCC2)n1-c1ccccc1 the result was -25.5%. Result for COCC1c2nnn(CC3CC3)c2CCN1C(=O)c1cc(C)on1 (centres undefined) was -12.49%. For CC(=O)NCCNC(=O)C1(Oc2cccnc2C)CCNCC1 the result was -25.07%. For CC(C)N1[C@@H](C(=O)NCC2CC2)C[C@@H]2CN(Cc3ccco3)C[C@@H]21 the result was -22.98%. With CC(NC(=O)CCOc1ccc(F)cc1)c1nnc2n1CCCCC2 (centres undefined) the screen gave -51.91%.

With COc1ccc(NC(=O)NC(C)Cn2cccn2)cn1 (centres undefined) the screen gave -27.29%. For Cc1cc(C)cc(CN2C[C@@H]3OCCN(CC(=O)N(C)C)[C@@H]3C2)c1 the result was -19.05%. For Cc1nc(-c2cccs2)ccc1C(=O)N1CCN(CCO)CC1 the result was 9.799%. Result for O=C1CCC2(CCCN(C(=O)c3ccoc3)C2)CN1CCc1c[nH]cn1 (centres undefined) was -21.8%. With c1cnc(N2CC3(CCN(C4CCOCC4)CC3)c3ccccc32)nc1 the screen gave 8.555%.

Once more, the final 2:

* O=C1CCC2(CCCN(C(=O)c3ccoc3)C2)CN1CCc1c[nH]cn1 (centres undefined) | -21.8%
* c1cnc(N2CC3(CCN(C4CCOCC4)CC3)c3ccccc32)nc1 | 8.555%